Source: the supplement of paper PMC3334620
In all, about 33,000 sequences were measured (“E-score (-0.5 to 0.5)”: median about -0.0014, highest 2% from about 0.25 on). The list shows a part of the results.

Each sequence was assayed against T1, Cad1 (UniProt P24813) (assay: PBM E-score (8-mer binding enrichment) (E-score (-0.5 to 0.5)); higher = stronger / more preferred TF binding). Conditions: protein concentration: 100 nM; construct: GST-full length.
T1 sequence: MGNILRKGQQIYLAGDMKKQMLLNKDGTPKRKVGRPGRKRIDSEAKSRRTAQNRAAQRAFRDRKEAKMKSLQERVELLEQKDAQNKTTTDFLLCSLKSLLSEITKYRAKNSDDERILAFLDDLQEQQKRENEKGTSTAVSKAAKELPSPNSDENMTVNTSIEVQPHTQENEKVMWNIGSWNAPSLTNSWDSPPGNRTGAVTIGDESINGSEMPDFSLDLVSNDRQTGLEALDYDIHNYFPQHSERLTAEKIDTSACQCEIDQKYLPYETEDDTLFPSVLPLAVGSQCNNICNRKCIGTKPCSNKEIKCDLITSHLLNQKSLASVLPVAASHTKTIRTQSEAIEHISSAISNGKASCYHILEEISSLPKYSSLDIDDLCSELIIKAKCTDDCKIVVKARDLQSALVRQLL
Procedure: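 Universal 'all 10-mer' protein binding microarrays (Agilent AMADID 015681) probed with GST-tagged S. cerevisiae TFs (full-length or DBD) made by in vitro transcription/translation (PURExpress), about 100-200 nM. Bound TF was detected with fluorescent anti-GST. Each ungapped 8-mer (which stands for itself and its reverse complement) is scored by the PBM enrichment score (E-score), a modified Wilcoxon-Mann-Whitney statistic from -0.5 to +0.5, computed with the Universal PBM Analysis Suite. Scale: above 0.35 generally sequence-specific binding.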

Row | Sequence | PBM E-score
1 | ATTCCCTC | -0.136
2 | AAGCGGGT | -0.0842
3 | ACCTCCTA | -0.189
4 | CAGAATCG | 0.0958
5 | ATATAGAG | -0.0207
6 | GACGGCAC | -0.222
7 | CGACATAC | 0.0648
8 | AGTTGGAT | -0.0953
9 | GCAGGATA | -0.0128
10 | AGTTACAC | 0.137
11 | ACCTTATA | 0.0886
12 | CCAAACGG | -0.139
13 | ACCTAGAA | 0.0783
14 | TATCATGA | 0.16
15 | GACCCGAC | -0.102
16 | ATTTATAC | 0.226
17 | AATTGGCC | 0.0164
18 | GCCTTCCA | -0.0641
19 | GGGGAGAA | -0.167
20 | CGCCCCCC | -0.5
21 | CGCAGGTA | -0.0773
22 | AGCCGGAC | 0.222
23 | CGTTACTC | 0.0728
24 | CCGGTTAA | -0.247
25 | CCAACCCG | -0.113

As entered above.
AGTTGGAT | PBM E-score: -0.0953
GGGGAGAA | PBM E-score: -0.167
AGCCGGAC | PBM E-score: 0.222
GCCTTCCA | PBM E-score: -0.0641

(list continues)

Row | Sequence | PBM E-score
26 | GGCTTGAA | -0.0635
27 | CCACTGCA | -0.0522
28 | CAAGATGG | -0.217
29 | CCTAGCTC | -0.181
30 | TAATCGAA | 0.35
31 | GGTTTTAA | -0.0185
32 | AGACCCTG | -0.0768
33 | AACATGCA | 0.0925
34 | GCGAAAAA | 0.242
35 | AGACGGCC | -0.0104
36 | CAAATTGG | 0.217
37 | AAATGGGA | -0.167
38 | AGGGGTTA | -0.176
39 | GCCTTCAC | 0.0863
40 | CACTTTGG | 0.0247
41 | TCGATAAA | 0.0919
42 | AGACCTAC | 0.0186
43 | CATCTAAG | -0.0246
44 | ACACCGTG | 0.00204
45 | AATGGCGA | 0.0549
46 | CCGGTTGC | 0.237
47 | CACACATG | -0.164
48 | GAGAGCGA | -0.0855
49 | AATTCGTA | 0.0688
50 | CCTTTGCC | -0.288

Row | Sequence | PBM E-score
51 | GTGCTTTA | 0.0851
52 | CGTTGCAG | -0.0504
53 | ACATTAGA | -0.141
54 | CCTAATAG | -0.0644
55 | GGTGTGAA | 0.174
56 | TCTAGACA | 0.107
57 | CCGTGCGA | 0.0484
58 | CTGAAAGA | 0.0278
59 | CTTCATAC | -0.0266
60 | ATCAACAC | 0.179
61 | ACATCTAG | -0.0478
62 | AGTGGAAA | -0.0817
63 | AAGCAGAC | -0.0154
64 | GCCTTCGA | -0.0191
65 | GGCAATAC | 0.0742
66 | CGAGACCG | 0.0389
67 | AACTCCTG | -0.00382
68 | TATCTCAA | 0.102
69 | AACCGATA | 0.176
70 | GATTTGCA | 0.215
71 | ACCATGGC | 0.234
72 | CTTATCCA | 0.127
73 | CCATCCCG | -0.046
74 | AAAAGATA | 0.0416
75 | GTCACACA | 0.018

Row | Sequence | PBM E-score
76 | ACTACTAT | 0.253
77 | ATAGGCAT | -0.202
78 | CTGTCAAA | -0.0384
79 | CGTGGATC | 0.00251
80 | GATGGCGC | -0.0508
81 | TAATTCAA | 0.245
82 | GACTCGAA | -0.0678
83 | ACGTAAGA | 0.199
84 | GAGCTCTA | 0.0699
85 | CGCCTGGA | -0.0144
86 | AATCAACA | 0.275
87 | CTTGAGCC | -0.221
88 | GCGAGTCC | -0.129
89 | CTGTCGCC | -0.029
90 | ATCGGGCC | -0.142
91 | ATTTTCGC | 0.159
92 | CTGGCACA | -0.108
93 | ATGGGATG | -0.116
94 | ACCTAAGG | -0.0442
95 | GCCAGGCC | -0.0246
96 | AACTCAAC | 0.19
97 | GTCATCAA | 0.16
98 | CAAATGAC | -0.0259
99 | GCGTAGTA | -0.133
100 | AATAGCAC | -0.125

Row | Sequence | PBM E-score
101 | GCGGCACA | 0.0291
102 | GACCCGGC | -0.0968
103 | AAGCGAGA | -0.0332
104 | ACCTCGGA | 0.173
105 | AGCAAACG | -0.0955
106 | ATGAGCGA | 0.109
107 | GTTTAGCA | 0.139
108 | ATTTAACC | -0.242
109 | TCTACAGA | -0.127
110 | CACGTTGA | 0.064
111 | GGTTCGGA | -0.0853
112 | AGTTAGGC | -0.0521
113 | AACGTCAT | 0.0428
114 | ACGTCCGG | -0.0325
115 | AGCATCAA | 0.104
116 | ACGCTGAA | 0.0691
117 | GGGCTTTA | -0.21
118 | CACTTGTC | 0.0541
119 | AGTCCCGA | -0.0735
120 | CTCGCTGC | 0.19
121 | GTCCAACA | 0.0641
122 | CTTATGGC | -0.0903
123 | AAGACCGT | -0.291
124 | TAACTCCA | -0.101
125 | GCGCCTCC | -0.0411

Row | Sequence | PBM E-score
126 | CTAGCCGA | -0.0822
127 | AGGTTCAA | 0.0308
128 | ATAGTAGG | 0.081
129 | CTTCACAC | -0.0388
130 | GTTGAAAC | 0.0575
131 | TGGCACAA | -0.118
132 | ATAACTGA | 0.19
133 | GGGCGGAC | -0.12
134 | TACCTAAA | 0.154
135 | CTGTGCGC | 0.0788
136 | CCATTAAC | 0.131
137 | AGACTCTC | -0.0591
138 | GAGTAATA | 0.198
139 | ACATTACT | 0.139
140 | AAGAAGCC | 0.182
141 | CGAGATTA | 0.198
142 | TCGTGGAA | 0.123
143 | CCAAGAGA | 0.0142
144 | AGATGCGA | -0.0722
145 | CTCCGGGA | -0.102
146 | CATCTGCG | 0.0102
147 | CCCTCTCC | -0.36
148 | ATATGTGA | 0.121
149 | CCGACAAG | -0.0166
150 | CCAGTGGA | -0.184

Copied from above, entries 144 to 147
Row | Sequence | PBM E-score
144 | AGATGCGA | -0.0722
145 | CTCCGGGA | -0.102
146 | CATCTGCG | 0.0102
147 | CCCTCTCC | -0.36

Additional entries

Row | Sequence | PBM E-score
151 | AGTTGAAA | -0.0414
152 | CGTTTTGA | 0.0158
153 | AGAAATTG | 0.105
154 | ACGAGCAC | 0.0382
155 | ACCTTCAA | 0.0663
156 | CCATCTCA | 0.0619
157 | CAAGTCGC | -0.192
158 | AATTTTAG | 0.149
159 | AGTGCGGC | 0.0577
160 | ATACGCTC | -0.0019
161 | CTACTCTC | -0.202
162 | CCATCGCA | -0.109
163 | GGCCTATA | -0.32
164 | CCTTTCGC | -0.163
165 | CGTTGGTC | -0.0447
166 | CGCCCGCG | -0.0942
167 | CGGGTACA | -0.135
168 | CACCGTAG | -0.218
169 | ACTCCTAT | -0.102
170 | AAGACCCA | -0.24
171 | AGTGGGAT | -0.0954
172 | CCTTCCCA | 0.0189
